The supplement of paper PMC8728848
This is one part of the list.

Experiments:
Experiment in all cases: glycan array binding signal (z-score within array); higher = stronger binding
Settings in all cases: glycan notation: IUPAC condensed, linker removed
[1] = system: Neu5Ac(a2-3)Gal(b1-4)GlcNAc(b1-3)Gal
Outline: (§1)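 Arrays were curated from the Consortium for Functional Glycomics database, 3228 in total, and kept only where the protein sequence was available. Binding is expressed as a within-array Z-score. This score was averaged across arrays of the same protein sequence at different concentrations or buffers and across linkers, and negative values can be read as non-binding.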

[2] = system: Neu5Ac(a2-3)Gal(b1-4)GlcNAc(b1-3)[Neu5Ac(a2-3)Gal(b1-4)GlcNAc(b1-6)]GalNAc
Outline: as §1

[3] = system: Neu5Ac(a2-3)Gal(b1-4)GlcNAc(b1-6)GalNAc
Outline: as §1

[4] = system: Neu5Ac(a2-3)Gal(b1-4)GlcNAc(b1-6)[Gal(b1-3)]GalNAc
Outline: as §1

[5] = system: Neu5Ac(a2-3)Gal(b1-4)GlcNAc(b1-6)[Neu5Ac(a2-3)Gal(b1-3)]GalNAc
Outline: as §1

[6] = system: Neu5Ac(a2-3)Gal(b1-4)GlcNAc6S
Outline: as §1

[7] = system: Neu5Ac(a2-3)Gal(b1-4)GlcNAc
Outline: as §1

[8] = system: Neu5Ac(a2-3)Gal(b1-4)Glc
Outline: as §1

[9] = system: Neu5Ac(a2-3)Gal(b1-4)[Fuc(a1-3)]GlcNAc(b1-2)Man
Outline: as §1

[10] = system: Neu5Ac(a2-3)Gal(b1-4)[Fuc(a1-3)]GlcNAc(b1-3)Gal(b1-4)GlcNAc
Outline: as §1

[11] = system: Neu5Ac(a2-3)Gal(b1-4)[Fuc(a1-3)]GlcNAc(b1-3)Gal(b1-4)[Fuc(a1-3)]GlcNAc(b1-3)Gal(b1-4)[Fuc(a1-3)]GlcNAc
Outline: as §1

[12] = system: Neu5Ac(a2-3)Gal(b1-4)[Fuc(a1-3)]GlcNAc(b1-3)GalNAc
Outline: as §1

[13] = system: Neu5Ac(a2-3)Gal(b1-4)[Fuc(a1-3)]GlcNAc(b1-3)Gal
Outline: as §1

[14] = system: Neu5Ac(a2-3)Gal(b1-4)[Fuc(a1-3)]GlcNAc(b1-6)[Gal(b1-3)]GalNAc
Outline: as §1

[15] = system: Neu5Ac(a2-3)Gal(b1-4)[Fuc(a1-3)]GlcNAc(b1-6)[Neu5Ac(a2-3)Gal(b1-3)]GalNAc
Outline: as §1

[16] = system: Neu5Ac(a2-3)Gal(b1-4)[Fuc(a1-3)]GlcNAc6S
Outline: as §1

[17] = system: Neu5Ac(a2-3)Gal(b1-4)[Fuc(a1-3)]GlcNAc
Outline: as §1

[18] = system: Neu5Ac(a2-3)Gal6S(b1-4)GlcNAc
Outline: as §1

[19] = system: Neu5Ac(a2-3)Gal6S(b1-4)[Fuc(a1-3)]GlcNAc
Outline: as §1

[20] = system: Neu5Ac(a2-3)GalNAc(b1-4)GlcNAc
Outline: as §1

[21] = system: Neu5Ac(a2-3)GalNAc
Outline: as §1

[22] = system: Neu5Ac(a2-3)Gal
Outline: as §1

[23] = system: Neu5Ac(a2-3)[GalNAc(b1-4)]Gal(b1-4)GlcNAc(b1-3)GalNAc
Outline: as §1

[24] = system: Neu5Ac(a2-3)[GalNAc(b1-4)]Gal(b1-4)GlcNAc
Outline: as §1

[25] = system: Neu5Ac(a2-3)[GalNAc(b1-4)]Gal(b1-4)Glc
Outline: as §1

[26] = system: Neu5Ac(a2-3)[Neu5Ac(a2-6)]GalNAc
Outline: as §1

[27] = system: Neu5Ac(a2-6)Gal(b1-3)GlcNAc(b1-3)[Gal(b1-4)GlcNAc(b1-6)]Gal(b1-4)Glc
Outline: as §1

[28] = system: Neu5Ac(a2-6)Gal(b1-4)GlcNAc(b1-2)Man(a1-3)Man(b1-4)GlcNAc(b1-4)GlcNAc
Outline: as §1

[29] = system: Neu5Ac(a2-6)Gal(b1-4)GlcNAc(b1-2)Man(a1-3)[Gal(b1-4)GlcNAc(b1-2)Man(a1-6)]Man(b1-4)GlcNAc(b1-4)GlcNAc
Outline: as §1

[30] = system: Neu5Ac(a2-6)Gal(b1-4)GlcNAc(b1-2)Man(a1-3)[GlcNAc(b1-4)][Neu5Ac(a2-6)Gal(b1-4)GlcNAc(b1-2)Man(a1-6)]Man(b1-4)GlcNAc(b1-4)GlcNAc
Outline: as §1

[31] = system: Neu5Ac(a2-6)Gal(b1-4)GlcNAc(b1-2)Man(a1-3)[Man(a1-6)]Man(b1-4)GlcNAc(b1-4)GlcNAc
Outline: as §1

[32] = system: Neu5Ac(a2-6)Gal(b1-4)GlcNAc(b1-2)Man(a1-3)[Neu5Ac(a2-3)Gal(b1-4)GlcNAc(b1-2)Man(a1-6)]Man(b1-4)GlcNAc(b1-4)GlcNAc
Outline: as §1

For MpAFP RI GFP (Marinomonas primoryensis), which “glycan array binding signal (z-score)” value [1] is on record?
The value was -0.665.

What about the “glycan array binding signal (z-score)” value [2] of the same substance?
The value was -0.417.

And the “glycan array binding signal (z-score)” value [3]?
The value was -0.342.

What about the “glycan array binding signal (z-score)” value [4] of the same substance?
Its value is 2.43.

What about the “glycan array binding signal (z-score)” value [5] of the same substance?
Its value is -0.51.

What about the “glycan array binding signal (z-score)” value [6] of the same substance?
Its value is -0.6.

What about the “glycan array binding signal (z-score)” value [7] of the same substance?
Its value is 0.602.

What about the “glycan array binding signal (z-score)” value [8] of the same substance?
Its value is -0.373.

What about the “glycan array binding signal (z-score)” value [9] of the same substance?
Its value is -0.617.

What about the “glycan array binding signal (z-score)” value [10] of the same substance?
Its value is 1.56.

What about the “glycan array binding signal (z-score)” value [11] of the same substance?
Its value is -0.039.

And the “glycan array binding signal (z-score)” value [12]?
Its value is 1.52.

And the “glycan array binding signal (z-score)” value [13]?
The value was -0.398.

What about the “glycan array binding signal (z-score)” value [14] of the same substance?
The value was 0.494.

And the “glycan array binding signal (z-score)” value [15]?
The value was 1.08.

And the “glycan array binding signal (z-score)” value [16]?
The value was -0.524.

What about the “glycan array binding signal (z-score)” value [17] of the same substance?
Its value is -0.791.

What about the “glycan array binding signal (z-score)” value [18] of the same substance?
The value was -0.72.

What about the “glycan array binding signal (z-score)” value [19] of the same substance?
The value was -0.564.

And the “glycan array binding signal (z-score)” value [20]?
Its value is -0.461.

What about the “glycan array binding signal (z-score)” value [21] of the same substance?
The value was 2.97.

And the “glycan array binding signal (z-score)” value [22]?
Its value is -0.561.

And the “glycan array binding signal (z-score)” value [23]?
Its value is -0.407.

And the “glycan array binding signal (z-score)” value [24]?
The value was -0.664.

What about the “glycan array binding signal (z-score)” value [25] of the same substance?
The value was -0.635.

What about the “glycan array binding signal (z-score)” value [26] of the same substance?
Its value is 2.42.

What about the “glycan array binding signal (z-score)” value [27] of the same substance?
Its value is -0.277.

And the “glycan array binding signal (z-score)” value [28]?
The value was 0.699.

And the “glycan array binding signal (z-score)” value [29]?
Its value is 1.1.

And the “glycan array binding signal (z-score)” value [30]?
Its value is -0.435.

What about the “glycan array binding signal (z-score)” value [31] of the same substance?
Its value is 0.118.

And the “glycan array binding signal (z-score)” value [32]?
Its value is -0.544.
